Record: PubChem BioAssay AID1159584 (Peter MacCallum Cancer Centre, 2016)
In all, the deposit lists about 18,000 reagents; shown is a part drawn at random. Reagent sequences are not shown. The record does not give: the amount of reagent, the time to read-out.

Aim: 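Knock-downs that harm CDH1-null cells more than parental MCF10A cells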 (primary screen)
System: human MCF10A breast epithelial cells, parental and CDH1-null
Knock-down reagent: siRNA against human genes
Measurement: 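ATP luminescence (CellTiter-Glo) viability per line relative to mean mock wells over all plates, and the ratio of CDH1-null to parental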
Reading the numbers: CDH1-null / parental viability ratio: higher = CDH1-null cells survive relatively better than parental; CDH1-null viability vs mock: higher = more viable CDH1-null cells; parental viability vs mock: higher = more viable parental cells

gene	CDH1-null / parental viability ratio	CDH1-null viability vs mock (fraction of mock)	parental viability vs mock (fraction of mock)
CCDC110	1.15	1.12	0.97
FER	0.81	0.74	0.91
KDM1A	0.97	0.74	0.76
TSG101	1.18	0.97	0.82
TFB2M	1.17	1.02	0.87
RND1	0.96	0.93	0.97
DYNC2LI1	1.06	0.68	0.64
KGD4	1.02	0.88	0.86
DHDH	1.18	1.23	1.04
SERPINB9	1.15	0.99	0.86
SELENOW	1.17	0.75	0.64
RPGRIP1L	0.9	0.64	0.71
TP53I3	1.36	0.79	0.58
IVNS1ABP	0.95	0.82	0.86
PRADC1	1.32	0.79	0.6
CCL18	0.74	0.53	0.72
TMCC2	0.86	0.55	0.64
CIT	0.81	0.58	0.72
TINF2	1.45	0.42	0.29
ST3GAL6	1.05	0.92	0.88
POLR2A	1.31	0.42	0.32
TRPS1	0.95	0.73	0.77

A portion of the results above, for reference:
gene	CDH1-null / parental viability ratio	CDH1-null viability vs mock (fraction of mock)	parental viability vs mock (fraction of mock)
SELENOW	1.17	0.75	0.64
RPGRIP1L	0.9	0.64	0.71
TP53I3	1.36	0.79	0.58
IVNS1ABP	0.95	0.82	0.86
PRADC1	1.32	0.79	0.6
CCL18	0.74	0.53	0.72
TMCC2	0.86	0.55	0.64
CIT	0.81	0.58	0.72
TINF2	1.45	0.42	0.29

The results go on.
gene	CDH1-null / parental viability ratio	CDH1-null viability vs mock (fraction of mock)	parental viability vs mock (fraction of mock)
ALG2	0.95	0.95	1
KIAA1143	0.86	0.84	0.98
VPS37C	0.8	0.64	0.8
ACTMAP	1.19	0.96	0.81
TSFM	1.1	1.09	0.99
HSF2BP	1.11	0.98	0.88
S100A2	1.01	0.88	0.87
CLPTM1L	1.11	0.8	0.72
ZNF248	1.31	0.92	0.7
APRG1	1.03	0.62	0.6
STX12	0.99	0.87	0.88
ITGB7	0.98	0.62	0.63
MYO10	1.06	0.88	0.83
SLC19A3	0.95	1.2	1.26
PJA2	0.98	0.86	0.88
RPS7	1.43	0.4	0.28
OR3A4P	1.2	0.91	0.76
ARPP21	0.87	0.54	0.62
ETFA	0.74	0.7	0.94
ZNF101	1.03	0.92	0.89
DNM3	0.95	0.71	0.75
CGN	1.22	0.93	0.76
ATP6V0A4	1.01	0.94	0.93
FIBCD1	1.11	0.3	0.27
MCUB	0.89	0.68	0.76
LIN7C	0.9	0.94	1.04
UBD	0.98	0.86	0.88
LMBRD2	1.16	0.78	0.67
MAF1	1.29	0.72	0.56
MICOS10	1.08	0.54	0.5
ZNF501	0.72	0.58	0.81
TUBB6	0.99	0.79	0.8
COL2A1	1.15	0.99	0.86
CT47A1	1.26	1.21	0.96
ARL5B	0.93	0.8	0.86
ATP1A2	1.09	1.1	1.01
TSPYL1	0.8	0.66	0.82
ANAPC2	1.1	0.99	0.9
OR10Q1	0.73	0.44	0.6
PCDHGB5	1.07	0.88	0.82
HERC2	1.09	0.94	0.86
ITGA9	0.92	0.97	1.05
C7	0.73	0.59	0.81
ABCA5	1.21	1.04	0.86
GKAP1	0.96	1.02	1.06
DHCR7	0.75	0.56	0.75
